{"source": "PubChem BioAssay AID1224830 (NIAID, 2016)", "screen": "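Genes whose knock-down alters the TNF-alpha reporter response to LPS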 (primary screen)", "cells": "human THP-1 monocytic leukaemia cells, TNF dual-luciferase reporter clone, PMA-differentiated to macrophage-like cells", "knock-down reagent": "siRNA pool against human genes, 50 nM", "time to read-out": "LPS for 4 h, given about 3 days after siRNA transfection", "treatment": "bacterial LPS (TLR4 ligand), 10 ng/ml", "measured": "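TNF firefly reporter luminescence divided by renilla, normalised to the plate median, then turned into a robust z-score for each replicate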", "reading the numbers": "TNF reporter robust z-score: higher = stronger TNF reporter response to LPS", "active means": "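Each well counts as active if its z-score is over 2.8 or under -1.5; controls are left without a call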", "note": "Shown is an unselected part of about 18,000 reagents tested. About 2,900 of them (16%) count as active. 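Calls are made per well; low scores hint the gene aids the LPS response, high scores that it dampens it.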 Repeated entries: four replicate wells of each siRNA pool. Reagent sequences are not shown."}
{"gene": "PHF3", "TNF reporter robust z-score": 0.45, "activity call": "inactive"}
{"gene": "PHF3", "TNF reporter robust z-score": 2.46, "activity call": "inactive"}
{"gene": "PHF3", "TNF reporter robust z-score": -0.68, "activity call": "inactive"}
{"gene": "PHF3", "TNF reporter robust z-score": 1.83, "activity call": "inactive"}
{"gene": "FBXO4", "TNF reporter robust z-score": -1.81, "activity call": "active"}
{"gene": "FBXO4", "TNF reporter robust z-score": 1.18, "activity call": "inactive"}
{"gene": "FBXO4", "TNF reporter robust z-score": 0.95, "activity call": "inactive"}
{"gene": "FBXO4", "TNF reporter robust z-score": 0.07, "activity call": "inactive"}
{"gene": "RAB27A", "TNF reporter robust z-score": -0.14, "activity call": "inactive"}
{"gene": "RAB27A", "TNF reporter robust z-score": -0.75, "activity call": "inactive"}
{"gene": "RAB27A", "TNF reporter robust z-score": 0.05, "activity call": "inactive"}
{"gene": "RAB27A", "TNF reporter robust z-score": 0.79, "activity call": "inactive"}
{"gene": "CCAR1", "TNF reporter robust z-score": -1.08, "activity call": "inactive"}
{"gene": "CCAR1", "TNF reporter robust z-score": -1.28, "activity call": "inactive"}
{"gene": "CCAR1", "TNF reporter robust z-score": -1.51, "activity call": "active"}
{"gene": "CCAR1", "TNF reporter robust z-score": 0.52, "activity call": "inactive"}
{"gene": "RHPN1", "TNF reporter robust z-score": 0.39, "activity call": "inactive"}
{"gene": "RHPN1", "TNF reporter robust z-score": 0.83, "activity call": "inactive"}
{"gene": "RHPN1", "TNF reporter robust z-score": 0.47, "activity call": "inactive"}
{"gene": "RHPN1", "TNF reporter robust z-score": 1.14, "activity call": "inactive"}

Continued; the last 6 above are carried over.
{"gene": "CCAR1", "TNF reporter robust z-score": -1.51, "activity call": "active"}
{"gene": "CCAR1", "TNF reporter robust z-score": 0.52, "activity call": "inactive"}
{"gene": "RHPN1", "TNF reporter robust z-score": 0.39, "activity call": "inactive"}
{"gene": "RHPN1", "TNF reporter robust z-score": 0.83, "activity call": "inactive"}
{"gene": "RHPN1", "TNF reporter robust z-score": 0.47, "activity call": "inactive"}
{"gene": "RHPN1", "TNF reporter robust z-score": 1.14, "activity call": "inactive"}
{"gene": "ZCCHC13", "TNF reporter robust z-score": -0.38, "activity call": "inactive"}
{"gene": "ZCCHC13", "TNF reporter robust z-score": 0.44, "activity call": "inactive"}
{"gene": "ZCCHC13", "TNF reporter robust z-score": 0.32, "activity call": "inactive"}
{"gene": "ZCCHC13", "TNF reporter robust z-score": 0.87, "activity call": "inactive"}
{"gene": "ASCL1", "TNF reporter robust z-score": 1.13, "activity call": "inactive"}
{"gene": "ASCL1", "TNF reporter robust z-score": 1.34, "activity call": "inactive"}
{"gene": "ASCL1", "TNF reporter robust z-score": 0.4, "activity call": "inactive"}
{"gene": "ASCL1", "TNF reporter robust z-score": 2.2, "activity call": "inactive"}
{"gene": "RNH1", "TNF reporter robust z-score": -0.59, "activity call": "inactive"}
{"gene": "RNH1", "TNF reporter robust z-score": -0.64, "activity call": "inactive"}
{"gene": "RNH1", "TNF reporter robust z-score": -0.71, "activity call": "inactive"}
{"gene": "RNH1", "TNF reporter robust z-score": -0.13, "activity call": "inactive"}
{"gene": "CSNK1G1", "TNF reporter robust z-score": -0.81, "activity call": "inactive"}
{"gene": "CSNK1G1", "TNF reporter robust z-score": -0.77, "activity call": "inactive"}
{"gene": "CSNK1G1", "TNF reporter robust z-score": -0.21, "activity call": "inactive"}
{"gene": "CSNK1G1", "TNF reporter robust z-score": 0.18, "activity call": "inactive"}
{"gene": "SPATA31A7", "TNF reporter robust z-score": -0.28, "activity call": "inactive"}
{"gene": "SPATA31A7", "TNF reporter robust z-score": -0.52, "activity call": "inactive"}
{"gene": "SPATA31A7", "TNF reporter robust z-score": 0.45, "activity call": "inactive"}
{"gene": "SPATA31A7", "TNF reporter robust z-score": 1.41, "activity call": "inactive"}
{"gene": "MAML2", "TNF reporter robust z-score": -0.85, "activity call": "inactive"}
{"gene": "MAML2", "TNF reporter robust z-score": -0.46, "activity call": "inactive"}
{"gene": "MAML2", "TNF reporter robust z-score": -0.91, "activity call": "inactive"}
{"gene": "MAML2", "TNF reporter robust z-score": -1.3, "activity call": "inactive"}
{"gene": "CRLF3", "TNF reporter robust z-score": -1.24, "activity call": "inactive"}
{"gene": "CRLF3", "TNF reporter robust z-score": -0.62, "activity call": "inactive"}
{"gene": "CRLF3", "TNF reporter robust z-score": -1.23, "activity call": "inactive"}
{"gene": "CRLF3", "TNF reporter robust z-score": -0.59, "activity call": "inactive"}
